Measurements reported in the supplement of paper PMC12823440, “Inhibitors supercharge kinase turnover through native proteolytic circuits” (Nature, 2025).
Counter-ions that a name gives are not always drawn. The list shows a part of the results. Hit calls seldom repeat between salt and free forms of one compound.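 Kinases were expressed as nanoluciferase fusions in K562 cells and luminescence was read every 4 h between 2 and 18 h as percent of control, DMSO set to 100% and a positive control to 0%. A time point counts as decreased when the signal drops significantly (2 sigma). The hit call is the authors' own, does not follow from the count of time points alone, and its rule is not shown.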

Protein sequences, listed by entry. Tags and fused reporters are not part of them. Lines headed by an entry give the natural chain unless they say otherwise; changes in a name come on top.
UniProt P49840: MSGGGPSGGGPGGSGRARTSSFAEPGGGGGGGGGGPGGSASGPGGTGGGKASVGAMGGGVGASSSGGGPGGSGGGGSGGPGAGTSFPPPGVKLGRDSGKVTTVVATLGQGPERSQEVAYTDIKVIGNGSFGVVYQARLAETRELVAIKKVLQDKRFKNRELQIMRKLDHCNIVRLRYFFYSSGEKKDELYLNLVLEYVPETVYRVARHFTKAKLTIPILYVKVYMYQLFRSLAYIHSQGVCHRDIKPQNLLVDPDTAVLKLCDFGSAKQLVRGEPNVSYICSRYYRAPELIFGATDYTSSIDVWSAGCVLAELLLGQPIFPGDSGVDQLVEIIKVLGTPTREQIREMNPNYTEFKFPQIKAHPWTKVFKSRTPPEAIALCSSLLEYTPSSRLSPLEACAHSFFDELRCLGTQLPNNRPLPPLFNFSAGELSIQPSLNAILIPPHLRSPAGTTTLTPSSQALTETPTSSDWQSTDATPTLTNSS
UniProt P23458: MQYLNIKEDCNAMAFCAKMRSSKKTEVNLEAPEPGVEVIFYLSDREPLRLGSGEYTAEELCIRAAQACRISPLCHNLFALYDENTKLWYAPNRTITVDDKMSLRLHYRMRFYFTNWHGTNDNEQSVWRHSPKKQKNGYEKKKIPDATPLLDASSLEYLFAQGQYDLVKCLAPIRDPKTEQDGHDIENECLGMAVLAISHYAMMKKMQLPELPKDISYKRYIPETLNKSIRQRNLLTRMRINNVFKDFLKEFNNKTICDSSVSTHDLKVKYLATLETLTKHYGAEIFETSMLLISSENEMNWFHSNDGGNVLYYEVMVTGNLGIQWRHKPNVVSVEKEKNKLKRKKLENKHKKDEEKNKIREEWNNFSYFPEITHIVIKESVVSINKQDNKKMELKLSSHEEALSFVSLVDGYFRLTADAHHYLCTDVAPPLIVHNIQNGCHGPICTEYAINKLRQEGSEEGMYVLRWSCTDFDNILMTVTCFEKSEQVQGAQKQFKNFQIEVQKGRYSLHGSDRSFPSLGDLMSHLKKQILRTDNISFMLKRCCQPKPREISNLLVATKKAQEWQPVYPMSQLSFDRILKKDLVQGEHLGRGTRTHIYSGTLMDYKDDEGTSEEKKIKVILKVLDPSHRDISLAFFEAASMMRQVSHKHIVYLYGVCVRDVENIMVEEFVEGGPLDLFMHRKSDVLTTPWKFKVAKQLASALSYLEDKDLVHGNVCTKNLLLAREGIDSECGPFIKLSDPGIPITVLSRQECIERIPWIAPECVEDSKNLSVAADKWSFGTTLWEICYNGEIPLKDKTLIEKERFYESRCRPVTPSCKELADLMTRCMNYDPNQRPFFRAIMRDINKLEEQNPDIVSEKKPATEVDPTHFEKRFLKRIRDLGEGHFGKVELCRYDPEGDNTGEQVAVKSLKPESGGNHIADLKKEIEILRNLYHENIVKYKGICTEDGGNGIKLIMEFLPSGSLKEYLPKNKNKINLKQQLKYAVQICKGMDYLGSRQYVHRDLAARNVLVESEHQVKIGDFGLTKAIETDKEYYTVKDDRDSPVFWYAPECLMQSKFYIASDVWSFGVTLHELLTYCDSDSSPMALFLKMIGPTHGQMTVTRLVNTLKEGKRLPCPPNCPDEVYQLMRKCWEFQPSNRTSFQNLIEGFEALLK
UniProt P06239: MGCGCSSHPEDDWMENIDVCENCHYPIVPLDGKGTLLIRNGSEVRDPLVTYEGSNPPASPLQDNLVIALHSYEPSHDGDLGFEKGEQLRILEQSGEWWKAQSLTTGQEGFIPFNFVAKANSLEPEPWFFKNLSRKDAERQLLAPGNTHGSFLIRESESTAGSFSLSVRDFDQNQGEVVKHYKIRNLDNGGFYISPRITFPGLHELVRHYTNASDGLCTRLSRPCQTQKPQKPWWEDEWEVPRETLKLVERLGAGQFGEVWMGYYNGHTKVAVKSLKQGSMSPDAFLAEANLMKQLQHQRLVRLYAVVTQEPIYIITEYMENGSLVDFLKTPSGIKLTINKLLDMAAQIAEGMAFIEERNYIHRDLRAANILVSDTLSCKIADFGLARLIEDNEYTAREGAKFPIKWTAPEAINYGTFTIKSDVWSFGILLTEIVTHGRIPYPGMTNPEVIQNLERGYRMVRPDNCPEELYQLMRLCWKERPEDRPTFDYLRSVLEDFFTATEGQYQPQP
UniProt P53667: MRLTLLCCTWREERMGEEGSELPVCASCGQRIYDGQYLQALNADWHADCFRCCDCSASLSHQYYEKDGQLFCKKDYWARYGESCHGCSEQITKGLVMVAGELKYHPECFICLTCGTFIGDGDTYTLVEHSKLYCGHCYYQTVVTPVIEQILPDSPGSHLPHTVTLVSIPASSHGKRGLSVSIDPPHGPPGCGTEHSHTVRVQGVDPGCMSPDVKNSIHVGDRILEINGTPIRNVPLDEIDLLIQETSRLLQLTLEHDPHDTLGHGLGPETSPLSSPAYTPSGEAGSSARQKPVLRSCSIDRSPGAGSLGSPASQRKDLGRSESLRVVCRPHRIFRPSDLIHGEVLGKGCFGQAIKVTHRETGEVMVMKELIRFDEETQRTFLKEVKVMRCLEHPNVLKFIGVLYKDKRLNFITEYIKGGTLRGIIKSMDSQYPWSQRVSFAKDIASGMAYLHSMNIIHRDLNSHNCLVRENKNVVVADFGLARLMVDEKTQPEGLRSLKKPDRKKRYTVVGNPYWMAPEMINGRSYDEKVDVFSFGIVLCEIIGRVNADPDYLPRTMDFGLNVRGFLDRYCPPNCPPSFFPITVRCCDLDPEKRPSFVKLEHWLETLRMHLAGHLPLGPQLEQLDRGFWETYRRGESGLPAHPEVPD
UniProt Q8IWU2: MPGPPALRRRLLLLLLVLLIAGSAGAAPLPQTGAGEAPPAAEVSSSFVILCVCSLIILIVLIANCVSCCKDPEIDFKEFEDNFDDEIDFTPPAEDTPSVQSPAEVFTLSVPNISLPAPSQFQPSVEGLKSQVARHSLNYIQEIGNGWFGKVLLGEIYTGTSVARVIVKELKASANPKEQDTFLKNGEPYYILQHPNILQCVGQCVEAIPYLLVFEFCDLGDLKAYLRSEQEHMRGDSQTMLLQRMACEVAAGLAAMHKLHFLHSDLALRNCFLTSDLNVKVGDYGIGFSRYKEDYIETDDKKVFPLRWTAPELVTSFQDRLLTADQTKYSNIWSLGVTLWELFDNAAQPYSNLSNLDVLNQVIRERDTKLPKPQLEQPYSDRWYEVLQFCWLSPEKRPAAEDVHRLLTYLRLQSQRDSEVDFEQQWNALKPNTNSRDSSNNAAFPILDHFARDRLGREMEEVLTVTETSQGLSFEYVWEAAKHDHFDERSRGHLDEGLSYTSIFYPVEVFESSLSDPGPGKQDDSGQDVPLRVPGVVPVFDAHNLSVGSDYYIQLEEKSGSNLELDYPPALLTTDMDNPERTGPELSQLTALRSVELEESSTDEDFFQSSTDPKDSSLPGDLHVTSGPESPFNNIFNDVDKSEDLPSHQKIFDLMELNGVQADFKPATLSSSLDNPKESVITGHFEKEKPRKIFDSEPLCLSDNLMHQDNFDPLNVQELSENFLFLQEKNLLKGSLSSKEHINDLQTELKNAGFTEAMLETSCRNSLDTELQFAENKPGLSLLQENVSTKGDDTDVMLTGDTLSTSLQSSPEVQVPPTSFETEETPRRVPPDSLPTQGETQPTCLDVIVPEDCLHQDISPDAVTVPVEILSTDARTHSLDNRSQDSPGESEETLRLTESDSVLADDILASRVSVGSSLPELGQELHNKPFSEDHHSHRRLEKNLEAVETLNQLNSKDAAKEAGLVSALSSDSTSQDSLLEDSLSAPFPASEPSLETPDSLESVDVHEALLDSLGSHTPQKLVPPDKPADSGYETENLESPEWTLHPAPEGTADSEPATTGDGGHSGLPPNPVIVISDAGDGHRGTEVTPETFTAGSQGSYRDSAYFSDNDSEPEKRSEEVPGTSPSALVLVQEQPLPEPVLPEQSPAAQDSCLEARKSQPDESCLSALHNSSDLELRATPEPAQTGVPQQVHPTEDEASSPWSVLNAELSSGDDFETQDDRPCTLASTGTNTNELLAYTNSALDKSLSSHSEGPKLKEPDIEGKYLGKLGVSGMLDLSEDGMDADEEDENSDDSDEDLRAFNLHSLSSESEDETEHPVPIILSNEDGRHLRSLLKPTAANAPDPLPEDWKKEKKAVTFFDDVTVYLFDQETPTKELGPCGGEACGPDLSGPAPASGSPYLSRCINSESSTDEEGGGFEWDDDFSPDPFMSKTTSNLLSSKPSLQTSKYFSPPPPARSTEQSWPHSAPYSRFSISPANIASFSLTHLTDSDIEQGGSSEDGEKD
UniProt P07948: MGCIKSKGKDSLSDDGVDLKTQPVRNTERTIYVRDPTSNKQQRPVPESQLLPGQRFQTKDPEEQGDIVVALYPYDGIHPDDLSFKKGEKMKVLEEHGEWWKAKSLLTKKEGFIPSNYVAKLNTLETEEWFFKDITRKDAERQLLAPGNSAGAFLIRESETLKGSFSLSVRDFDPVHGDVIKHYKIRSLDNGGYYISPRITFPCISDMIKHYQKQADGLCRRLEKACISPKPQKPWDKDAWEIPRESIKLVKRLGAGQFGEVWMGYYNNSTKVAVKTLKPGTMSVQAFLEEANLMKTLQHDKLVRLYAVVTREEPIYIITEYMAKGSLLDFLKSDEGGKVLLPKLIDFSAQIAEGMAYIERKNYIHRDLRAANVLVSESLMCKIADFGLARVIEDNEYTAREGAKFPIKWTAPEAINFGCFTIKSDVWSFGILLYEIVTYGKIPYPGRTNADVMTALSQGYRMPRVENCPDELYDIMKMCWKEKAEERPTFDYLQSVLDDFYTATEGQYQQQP
UniProt P28482, whole entry: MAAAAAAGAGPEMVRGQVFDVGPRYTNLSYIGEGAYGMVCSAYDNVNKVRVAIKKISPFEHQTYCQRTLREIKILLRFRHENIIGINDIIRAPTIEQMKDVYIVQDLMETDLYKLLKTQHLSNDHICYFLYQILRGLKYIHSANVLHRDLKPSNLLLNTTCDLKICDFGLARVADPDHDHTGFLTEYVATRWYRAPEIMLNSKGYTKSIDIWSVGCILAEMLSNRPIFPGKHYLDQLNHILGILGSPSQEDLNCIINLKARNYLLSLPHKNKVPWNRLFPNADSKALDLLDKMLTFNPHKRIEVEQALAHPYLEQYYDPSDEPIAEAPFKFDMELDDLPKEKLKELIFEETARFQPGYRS
UniProt Q9BUB5: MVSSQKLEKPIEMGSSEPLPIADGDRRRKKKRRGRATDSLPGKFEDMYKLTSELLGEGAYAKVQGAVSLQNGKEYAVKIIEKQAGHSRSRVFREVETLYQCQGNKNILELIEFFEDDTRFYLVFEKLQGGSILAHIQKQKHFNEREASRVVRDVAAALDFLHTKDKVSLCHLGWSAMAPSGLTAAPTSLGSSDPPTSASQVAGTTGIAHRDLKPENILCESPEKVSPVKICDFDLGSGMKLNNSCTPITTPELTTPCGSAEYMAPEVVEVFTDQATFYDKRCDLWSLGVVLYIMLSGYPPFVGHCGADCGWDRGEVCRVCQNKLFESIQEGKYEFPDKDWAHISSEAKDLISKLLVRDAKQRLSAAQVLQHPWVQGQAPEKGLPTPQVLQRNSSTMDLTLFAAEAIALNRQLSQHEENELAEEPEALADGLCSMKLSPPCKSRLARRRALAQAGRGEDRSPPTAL
UniProt Q16620, whole entry, looked up: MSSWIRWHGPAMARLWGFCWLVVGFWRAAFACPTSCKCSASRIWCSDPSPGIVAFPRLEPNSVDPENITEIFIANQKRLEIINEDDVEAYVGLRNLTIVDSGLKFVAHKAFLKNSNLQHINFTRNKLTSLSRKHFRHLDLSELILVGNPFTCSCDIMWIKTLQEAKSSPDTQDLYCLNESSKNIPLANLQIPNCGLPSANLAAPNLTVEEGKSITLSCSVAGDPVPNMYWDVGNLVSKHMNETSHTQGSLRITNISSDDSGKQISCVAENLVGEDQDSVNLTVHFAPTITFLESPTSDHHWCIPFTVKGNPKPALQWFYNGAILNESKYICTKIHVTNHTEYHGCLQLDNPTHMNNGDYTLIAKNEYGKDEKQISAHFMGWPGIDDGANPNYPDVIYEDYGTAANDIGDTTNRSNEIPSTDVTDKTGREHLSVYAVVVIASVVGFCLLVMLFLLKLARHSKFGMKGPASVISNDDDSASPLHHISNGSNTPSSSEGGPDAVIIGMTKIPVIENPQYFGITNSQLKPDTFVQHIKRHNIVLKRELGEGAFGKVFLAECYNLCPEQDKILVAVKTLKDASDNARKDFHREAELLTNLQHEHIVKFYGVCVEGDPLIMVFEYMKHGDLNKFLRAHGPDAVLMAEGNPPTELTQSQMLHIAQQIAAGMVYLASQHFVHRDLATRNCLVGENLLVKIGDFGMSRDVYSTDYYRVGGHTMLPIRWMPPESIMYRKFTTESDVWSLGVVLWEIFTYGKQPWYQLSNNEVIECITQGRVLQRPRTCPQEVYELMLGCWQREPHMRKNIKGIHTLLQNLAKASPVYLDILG

Columns and labels:
Test in all cases: number of time points (of 5) at which kinase-Nluc abundance scored as decreased, DMSO-normalised (count); higher = more persistent destabilization
Settings in all cases: K562; 2-18 h
[1] = target: FLT3 (UniProt P36888)
[2] = target: FYN (UniProt P06241)
[3] = target: GSK3A (UniProt P49840)
[4] = target: HER2 (UniProt P04626)
[5] = target: INSRR (UniProt P14616)
[6] = target: IRAK3 (UniProt Q9Y616)
[7] = target: JAK1 (UniProt P23458)
[8] = target: LCK (UniProt P06239)
[9] = target: LIMK1 (UniProt P53667)
[10] = target: LIMK2 (UniProt P53671)
[11] = target: LMTK2 (UniProt Q8IWU2)
[12] = target: LYN (UniProt P07948)
[13] = target: MAP2K1 (UniProt Q02750)
[14] = target: MAP2K2 (UniProt P36507)
[15] = target: MAP4K2 (UniProt Q12851)
[16] = target: MAPK1 (UniProt P28482)
[17] = target: MAPK4 (UniProt P31152)
[18] = target: MAPKAPK2 (UniProt P49137)
[19] = target: MKNK1 (UniProt Q9BUB5)
[20] = target: NTRK2 (UniProt Q16620)

Measured: number of time points

CCC(=O)Nc1cccc(Oc2nc(Nc3ccc(N4CCN(C)CC4)cc3OC)ncc2Cl)c1 (10 µM)
1: [5]
0: all other assays above

COc1c(O)cc2oc(-c3ccc(O)cc3)cc(=O)c2c1O [Hispidulin] (10 µM)
0: all assays above

NCCOc1ccc(Cl)cc1C(=O)Nc1ccc([N+](=O)[O-])cc1Cl [HJC0152 hydrochloride] (2 µM)
0: all assays above

O=C1Nc2ccc(CN3C(=O)CSC3=O)cc2/C1=C/c1cc(CN2CCOCC2)c[nH]1 (10 µM)
0: all assays above

Cc1nn(C)cc1-c1nc2c(N3CCN(Cc4ccc(Cl)cc4)CC3)c(Cl)cnc2[nH]1 (10 µM)
0: all assays above

Cc1cc(-n2c(=O)ccc3c[nH]c4nccc-4c32)ccc1F (10 µM)
3: [2]
0: all other assays above

Nc1[nH]nc2nc(-c3ccc(NS(=O)(=O)c4cc(Cl)ccc4Cl)cc3)cnc12 (10 µM)
0: all assays above

Nc1nc(NCCNc2ncc(-n3ccnc3)c(-c3ccc(Cl)cc3Cl)n2)ccc1[N+](=O)[O-] (2.5 µM)
1: [4] | [11]
3: [20]
0: all other assays above

NC(=O)c1cnc(-c2ccc(C3(N)CCC3)cc2)c(-c2ccccc2)c1 (10 µM)
0: all assays above

NCC1CCC(CNc2nc(NCc3ccccc3OC(F)(F)F)ncc2[N+](=O)[O-])CC1 (stereo not given) [PKC-theta inhibitor] (10 µM)
5: [9]
4: [5] | [10]
3: [1] | [4] | [20]
1: [6] | [11]
2: [7] | [19]
0: all other assays above

Some of these compounds in order of length of the SMILES, ascending.
NC(=O)c1cnc(-c2ccc(C3(N)CCC3)cc2)c(-c2ccccc2)c1 (10 µM)
0: all assays above

NCC1CCC(CNc2nc(NCc3ccccc3OC(F)(F)F)ncc2[N+](=O)[O-])CC1 (stereo not given) [PKC-theta inhibitor] (10 µM)
5: [9]
4: [5] | [10]
3: [1] | [4] | [20]
1: [6] | [11]
2: [7] | [19]
0: all other assays above

Nc1nc(NCCNc2ncc(-n3ccnc3)c(-c3ccc(Cl)cc3Cl)n2)ccc1[N+](=O)[O-] (2.5 µM)
1: [4] | [11]
3: [20]
0: all other assays above

Going on with the list:

Cc1c(Cl)cccc1S(=O)(=O)Nc1nc(NCCc2ccccc2)nc2c1CN(Cc1ccccc1)CC2 (2.5 µM)
0: all assays above

Fc1ccc2[nH]ccc2c1-c1nc(N2CCOCC2)c2sc(CN3CCN(CC4CC4)CC3)cc2n1 (10 µM)
0: all assays above

O=C(NCCO)c1cc(C(=O)NCCO)cc(C(=O)NCCO)c1 (10 µM)
0: all assays above

C#Cc1cccc(Nc2ncnc3cc(OC)c(NC(=O)N4C[C@H]5CCN(C)[C@H]5C4)cc23)c1 [Theliatinib] (10 µM)
0: all assays above

Cc1ccc(C(=O)NC2CC2)cc1-n1ncc(C(=O)c2cccc(C#N)c2)c1N [Acumapimod] (10 µM)
2: [5]
0: all other assays above

CC(C)(C)Cc1[nH]nc2c1[C@@](C)(c1ccccc1)C1=C(CC(C)(C)CC1=O)N2 (10 µM)
1: [11]
0: all other assays above

COc1cc2c(cc1OC)/C(=C/c1ccc(O)cc1)C(=O)N2 (10 µM)
0: all assays above

Cc1ccc(-n2nc(C(C)(C)C)cc2NC(=O)Nc2ccc(OCCN3CCOCC3)cc2)cc1 (10 µM)
0: all assays above

CC(C)CCN1c2nc(Nc3cc(F)c(O)c(F)c3)ncc2N(C)C(=O)C1C (stereo not given) (2.5 µM)
0: all assays above
